The nature of this data set: general procedure: Fmoc solid-phase peptide synthesis; Nova Biochem Rink MBHA resin (0.58 mmole/g or 0.72 mmole/g); HBTU-HOBt-DIEA. The following applies: for final HPLC purity: LC-MS; for crude mass: scale 0.05 mmol.
[1] abbreviates: whole synthesis, scale of the general procedure 0.1 mmole or 0.25 mmole.
[2] abbreviates: whole synthesis, scale 0.05 mmole.
Setting [3] is: whole synthesis, scale 0.03 mmole.

On to [Chelate II]-KELNLVYT, for which the “final HPLC purity” value under setting [1] is recorded as 99%. The same substance showed an isolated mass under setting [2] of 8.7 mg.

For the substance Chelate I-ANAALKAGELYK-[Abu]-ILY, for the setting “late stage modification step”, the “final HPLC purity” value is listed as 98%.

On to α-His-[Ac]-ANAALKAGELYK-[Abu]-ILY, for which the “final HPLC purity” value under setting [1] is 98%. This substance gave an isolated mass under setting [3] of 2 mg. In turn, “Chelate 1-Glut-Ala-Asn-Ala-Ala-Leu-Lys(ivDde)-Ala-Gly-Glu-Leu-Tyr-Lys(ivDde)-Abu-Ile-Leu-Tyr-PEG(4)-diglycoloyl-NH2” registered a crude mass (whole synthesis) of 95 mg. Regarding HYNIC-ANAALKAGELYK-[Abu]-ILY, the “final HPLC purity” value under setting [1] worked out at 98%. Also, the isolated mass (whole synthesis, scale 0.01 mmole) turned out to be 1 mg. Turning to [Chelate II]-ANAALKAGELYKCILY-NH2, under setting [1], the “final HPLC purity” value is listed as 98% and the difficulty met entry is reported as “a large proportion of a deletion peptide (probably -Leu) was observed”. This substance returned an isolated mass under setting [2] of 5.8 mg. For the setting “whole synthesis”, “Chelate 1-Glut-Ala-Asn-Ala-Ala-Leu-Lys(ivDde)-Ala-Gly-Glu-Leu-Tyr-N-Me-Lys(ivDde)-Abu-Ile-Leu-Tyr-PEG(4)-diglycoloyl-NH2” displayed a crude mass of 77 mg. For Chelate II-MIVVELTNPLKSSGIENGAFQGMKK, under setting [1], the “final HPLC purity” value was determined as 98%. Under setting [3], this substance gave an isolated mass of 1 mg.
